Experimental data taken from PubChem BioAssay AID328 (DTP/NCI, 2004).
The list is a part of this screen's results and no random one: it gathers tests that were run many times, whatever their T/C, doses with no T/C, and many T/C values between a quarter and a half above the control. Other doses and runs of a compound stand elsewhere. T/C: endpoint of the treated group in % of that of the vehicle group. Some doses have a count of surviving animals in place of a T/C: the source files T/C as zero there, which appears to mark a toxic dose or a test without result, not a measured value. Some doses without a T/C left all or most animals alive at the check, yet need not have been tolerated: survival well below the control is almost never listed, so the zero probably covers shortened survival too. Counts of survivors are from the toxicity check (mostly the fifth day) where no day follows; animals may have died later. Schedule codes are those of the source, read here as Q, the interval in days (D) or hours (H), X, the number of doses. Some entries were tested several times; their values stand side by side, smallest first. Where survival is the endpoint, this PubChem deposit counts one and a half times the control or more as active, and values a quarter to a half above the control carry no call in these data; other NCI protocols may use other cut-offs. Some schedule codes hold Z or #, which are not explained here. Some T/C values carry the count of animals alive at the toxicity check (mostly the fifth day); where none is given, no animal had died by that day.

Test system: BDF1 mice, P388 leukemia ip, median survival T/C
Assay: NCI In Vivo Anticancer Drug Screen. Data for tumor model P388 Leukemia (intraperitoneal) in B6D2F1 (BDF1) mice
Details: T/C endpoint: median survival time, higher T/C = longer survival
Summary of the method: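 Transplantable tumour in mice; compound vs vehicle dosing; survival scored; ratio of treated to control reported.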

[1] = dose: 12.5 mg/kg/injection, schedule: Q01DX009 (ip), vehicle: saline with Tween-80
[2] = dose: 50.0 mg/kg/injection, schedule: Q01DX009 (ip), vehicle: saline with Tween-80
[3] = dose: 200.0 mg/kg/injection, schedule: Q04DX003 (ip), vehicle: saline with Tween-80
[4] = dose: 50.0 mg/kg/injection, schedule: Q01DX009 (ip), vehicle: saline
[5] = dose: 100.0 mg/kg/injection, schedule: Q01DX009 (ip), vehicle: saline
[6] = dose: 200.0 mg/kg/injection, schedule: Q01DX009 (ip), vehicle: saline
[7] = dose: 400.0 mg/kg/injection, schedule: Q01DX009 (ip), vehicle: saline
[8] = dose: 25.0 mg/kg/injection, schedule: Q01DX009 (ip), vehicle: saline with Tween-80
[9] = dose: 400.0 mg/kg/injection, schedule: Q01DX009 (ip), vehicle: saline with Tween-80
[10] = dose: 200.0 mg/kg/injection, schedule: Q01DX009 (ip), vehicle: saline with Tween-80
[11] = dose: 12.5 mg/kg/injection, schedule: Q01DX009 (ip), vehicle: suspension in saline
[12] = dose: 400.0 mg/kg/injection, schedule: Q04DX003 (ip), vehicle: saline with Tween-80
[13] = dose: 100.0 mg/kg/injection, schedule: Q01DX009 (ip), vehicle: saline with Tween-80
[14] = dose: 25.0 mg/kg/injection, schedule: Q01DX009 (ip), vehicle: saline

Which results are given for `O=CNc1ccc(/C=C\c2ccnc3ccccc23)cc1`?
T/C [1]: 133 % of control; survivor count [2]: 5 of 6

How did the survivor count (dose: 200.0 mg/kg/injection, schedule: Q01DX009 (ip), vehicle: distilled water + Tween-80) turn out when `COc1cc(Br)cc(C(=O)O)c1OC` was run?
Its survivor count is 3 of 6.

And the survivor count (dose: 400.0 mg/kg/injection, schedule: Q01DX009 (ip), vehicle: distilled water + Tween-80)?
Its survivor count is 3 of 6.

How did the survivor count (dose: 200.0 mg/kg/injection, schedule: Q04DX003 (ip), vehicle: water) turn out when `CN(C)Cc1cccc(N)c1` was run?
The survivor count was 2 of 6.

Which survivor count (dose: 100.0 mg/kg/injection, schedule: Q04DX003 (ip), vehicle: Klucel (hydroxypropylcellulose) (HPC)) does the source give for `COc1cc(C(=O)CCC(=O)O)cc(OC)c1OC` here?
Its survivor count is 6 of 6.

How did the survivor count [3] turn out when `CC(=O)OCC(OC(C)=O)C(OC(C)=O)C(C#N)OC(C)=O` (stereo not drawn) was run?
Its survivor count is 4 of 6.

For `CN(C)c1ccc(/C=C2\C=Cc3ccccc32)cc1F`, which T/C (dose: 100.0 mg/kg/injection, schedule: Q04DX003 (ip), vehicle: saline sonified) is on record?
Its T/C is 130 % of control.

With `C#CCOCCBr` as the compound, how does the T/C (dose: 33.0 mg/kg/injection, schedule: Q01DX009 (ip), vehicle: saline) read?
Its T/C is 131 % of control.

And the T/C [4]?
Its T/C is 136 and 145 % of control.

And the survivor count [4]?
Its survivor count is 2 of 6.

What about the T/C [5] of the same compound?
The T/C was 127 % of control.

And the survivor count [5]?
The survivor count was 4 of 6.

And the survivor count [6]?
The survivor count was 0 of 6.

What does the source list for `Cc1c[nH]c(=O)[nH]c1=O`?
T/C (dose: 260.0 mg/kg/injection, schedule: Q04DX003 (ip), vehicle: saline with Tween-80): 130 % of control; T/C (dose: 260.0 mg/kg/injection, schedule: Q## X003 (ip), vehicle: saline with Tween-80): 130 % of control

With `O=C(O)C1=NN(c2cc(Cl)c(S(=O)(=O)O)cc2Cl)C(=O)C1` as the compound, how does the T/C [7] read?
The T/C was 130 % of control [5 of 6 alive].

For `CCCOc1ccc(-c2nc(-c3ccc(N=Cc4ccc(N(CCOS(C)(=O)=O)CCOS(C)(=O)=O)cc4C)cc3)cs2)cc1`, which T/C [3] is on record?
The T/C was 134 % of control.

Which survivor count [4] does the source give for `CC(=O)[O][Hg][c]1c(C)c(C)cc(C)c1C` here?
The survivor count was 1 of 6.

What about the survivor count [5] of the same compound?
Its survivor count is 0 of 6.

For `S=P(N1CCCC1)(N1CC1)N1CC1`, which survivor count (dose: 20.0 mg/kg/injection, schedule: Q01DX009 (ip), vehicle: saline with Tween-80) is on record?
Its survivor count is 6 of 6.

And the survivor count (dose: 40.0 mg/kg/injection, schedule: Q01DX009 (ip), vehicle: saline with Tween-80)?
Its survivor count is 6 of 6.

With `CCOC(=O)C1=C(Nc2ccc([N+](=O)[O-])cc2)CCCC1` as the compound, how does the survivor count [1] read?
The survivor count was 6 of 6.

What about the survivor count [8] of the same compound?
The survivor count was 6 of 6.

What about the survivor count [2] of the same compound?
The survivor count was 5 of 6.

And the survivor count [5]?
The survivor count was 2 of 6.

And the survivor count [6]?
The survivor count was 0 of 6.

How did the survivor count [1] turn out when `N#CC(C#N)=C1SCS1` was run?
Its survivor count is 3 of 3.

With `COc1cc2ccnc(Cc3ccccc3)c2cc1OC` as the compound, how does the survivor count [9] read?
Its survivor count is 0 of 6.

With `CC(=O)N1N=C(N)SC1c1ccc(Cl)c(Cl)c1` (stereo not drawn) as the compound, how does the survivor count [10] read?
Its survivor count is 0 of 6.

`ClC1=C(Cl)C2(Cl)C3C4CC(C5OC45)C3C1(Cl)C2(Cl)Cl` (stereo not drawn) was tested. Which survivor count (dose: 6.25 mg/kg/injection, schedule: Q01DX009 (ip), vehicle: suspension in saline) did it give?
The survivor count was 6 of 6.

And the survivor count [11]?
The survivor count was 6 of 6.

And the survivor count (dose: 25.0 mg/kg/injection, schedule: Q01DX009 (ip), vehicle: suspension in saline)?
The survivor count was 6 of 6.

With `CO[C@@H]([CH2][Hg][S]C#N)[C@@H]([CH2][Hg][S]C#N)OC` as the compound, how does the survivor count (dose: 50.0 mg/kg/injection, schedule: Q01DX009 (ip), vehicle: other) read?
Its survivor count is 1 of 6.

And the survivor count (dose: 100.0 mg/kg/injection, schedule: Q01DX009 (ip), vehicle: other)?
The survivor count was 0 of 6.

And the survivor count (dose: 100.0 mg/kg/injection, schedule: Q04DX003 (ip), vehicle: other)?
The survivor count was 0 of 6.

And the survivor count (dose: 200.0 mg/kg/injection, schedule: Q04DX003 (ip), vehicle: saline sonified)?
Its survivor count is 0 of 6.

And the survivor count (dose: 400.0 mg/kg/injection, schedule: Q04DX003 (ip), vehicle: saline sonified)?
The survivor count was 0 of 6.

With `CCCCC(C)(O)CC` (stereo not drawn) as the compound, how does the survivor count [12] read?
Its survivor count is 1 of 6.

What does the source list for `ClCCOC(OCCCl)OCCCl`?
survivor count [13]: 5 of 6; survivor count [3]: 3 of 6; survivor count [12]: 0 of 6

With `O=C(Nc1ccc(Cl)cc1)P(=O)(O)c1ccccc1` as the compound, how does the survivor count [14] read?
The survivor count was 6 of 6.

What about the survivor count [6] of the same compound?
Its survivor count is 6 of 6.

And the survivor count [7]?
The survivor count was 4 of 6.

For `COC(=O)c1cc(=O)nc(NN=C(C)C)s1`, which survivor count (dose: 200.0 mg/kg/injection, schedule: Q01DX005 (ip), vehicle: saline with Tween-80) is on record?
Its survivor count is 0 of 5.

With `Cc1cc(NC(=O)c2ccc(C(=O)Nc3ccc(C4=NCCN4)c(C)c3)cc2)ccc1C1=NCCN1` as the compound, how does the survivor count [9] read?
The survivor count was 4 of 6.

Which results are given for `Nc1ccc(/C=C\c2nccc3ccccc23)cc1`?
T/C (dose: 1.56 mg/kg/injection, schedule: Q01DX009 (ip), vehicle: saline with Tween-80): 125 % of control; survivor count [1]: 6 of 6; survivor count [8]: 3 of 6; survivor count [2]: 0 of 6 and 3 of 6; survivor count [13]: 0 of 6; survivor count [10]: 0 of 6

With `CCOC(=O)CC(=O)N/N=C(/C)C(=O)OCC` as the compound, how does the survivor count [9] read?
The survivor count was 4 of 6.

For `CN(C)c1ccc(/C=C/c2nccc3ccccc23)cc1`, which survivor count [1] is on record?
The survivor count was 6 of 6.

And the survivor count [8]?
The survivor count was 6 of 6.

And the survivor count [2]?
Its survivor count is 0 of 6.

For `CCCCCCCCCCCC1=NCCN1`, which survivor count (dose: 6.25 mg/kg/injection, schedule: Q04DX003 (ip), vehicle: saline with Tween-80) is on record?
Its survivor count is 6 of 6.

What about the survivor count (dose: 25.0 mg/kg/injection, schedule: Q04DX003 (ip), vehicle: saline with Tween-80) of the same compound?
The survivor count was 6 of 6.

How did the T/C (dose: 400.0 mg/kg/injection, schedule: Q01DX011 (ip), vehicle: Klucel (hydroxypropylcellulose) (HPC)) turn out when `C(=C/c1nc2ccccc2o1)/c1ccc2c(c1)OCO2` was run?
Its T/C is 125 % of control.

What does the source list for `CC(C)(C)OC(=O)NOc1ccc([N+](=O)[O-])cc1[N+](=O)[O-]`?
survivor count [2]: 4 of 6; survivor count [13]: 0 of 6; survivor count (dose: 100.0 mg/kg/injection, schedule: Q04DX003 (ip), vehicle: saline with Tween-80): 4 of 6

Which results are given for `C/C(=C\Cl)CN(C)C`?
survivor count (dose: 225.0 mg/kg/injection, schedule: Q04DX003 (ip), vehicle: saline): 3 of 6; survivor count (dose: 335.0 mg/kg/injection, schedule: Q01DX009 (ip), vehicle: saline): 6 of 6

For `COC(=O)CCC(C)C1CCC2C3CCC4CC(SC(=N)N)CCC4(C)C3CCC12C` (stereo not drawn), which T/C [11] is on record?
Its T/C is 125 % of control.

And the survivor count [10]?
The survivor count was 4 of 6.

`O=C(Nc1ccccc1)c1ccc(C(F)(F)F)cc1O` was tested. Which T/C [14] did it give?
Its T/C is 137 % of control.

And the T/C [4]?
Its T/C is 130 % of control.

`NC12CC3CC(CC(C3)C1)C2` was tested. Which survivor count (dose: 200.0 mg/kg/injection, schedule: Q01DX010 (ip), vehicle: saline) did it give?
Its survivor count is 3 of 6.

With `CCCC/C=C/CO` as the compound, how does the survivor count [10] read?
The survivor count was 3 of 6.

For `NC(N)=NCCCCCC(=O)O`, which survivor count (dose: 100.0 mg/kg/injection, schedule: Q01DX001 (ip), vehicle: saline) is on record?
The survivor count was 6 of 6.

And the survivor count (dose: 200.0 mg/kg/injection, schedule: Q01DX001 (ip), vehicle: saline)?
Its survivor count is 3 of 6.

What about the survivor count (dose: 400.0 mg/kg/injection, schedule: Q04DX003 (ip), vehicle: saline) of the same compound?
Its survivor count is 3 of 6.

For `O=C(CCCC(O)(C1CC1)C1CC1)C1CC1`, which survivor count (dose: 400.0 mg/kg/injection, schedule: Q01DX009 (ip), vehicle: Klucel (hydroxypropylcellulose) (HPC)) is on record?
The survivor count was 1 of 6.

For `COc1c(Br)cc(Br)cc1/C=C/[N+](=O)[O-]`, which T/C [1] is on record?
The T/C was 127 % of control.

What about the survivor count [8] of the same compound?
Its survivor count is 6 of 6.

What about the survivor count [2] of the same compound?
Its survivor count is 2 of 6 and 5 of 6.

What about the survivor count [13] of the same compound?
Its survivor count is 3 of 6.

How did the survivor count [13] turn out when `CC(C)C(C(=O)c1ccccc1)c1ccccc1` (stereo not drawn) was run?
Its survivor count is 6 of 6.

With `COc1ccc(O)c(CC(C)C)c1` as the compound, how does the T/C (dose: 100.0 mg/kg/injection, schedule: Q01DX009 (ip), vehicle: alcohol) read?
Its T/C is 131 % of control.

What about the T/C (dose: 200.0 mg/kg/injection, schedule: Q01DX009 (ip), vehicle: alcohol) of the same compound?
Its T/C is 127 % of control.

What about the survivor count (dose: 400.0 mg/kg/injection, schedule: Q01DX009 (ip), vehicle: alcohol) of the same compound?
Its survivor count is 4 of 6.
